# In US20150104459A1:
# Chains of the proteins cited; added tags and fusions are not shown.
# UniProt P06821: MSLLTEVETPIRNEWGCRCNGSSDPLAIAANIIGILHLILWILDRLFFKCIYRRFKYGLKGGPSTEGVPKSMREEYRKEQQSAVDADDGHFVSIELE
# These are yes or no findings as the source states them, for the method shown. Some results given as binding are weak or reduced against the parent protein; the word gives no strength.
# B1: TCN-032 Fab fragment (Fab, V domains shown)
# VH: QVQLQESGPGLVKPSETLSLTCTVSGSSISNYYWSWIRQSPGKGLEWIGFIYYGGNTKYNPSLKSRVTISQDTSKSQVSLTMSSVTAAESAVYFCARASCSGGYCILDYWGQGTLVTVS
# VL: DIQMTQSPSSLSASVGDRVTITCRASQNIYKYLNWYQQRPGKAPKGLISAASGLQSGVPSRFSGSGSGTDFTLTITSLQPEDFATYYCQQSYSPPLTFGGGTRVEIK
# Biological target: M2 protein of A/Puerto Rico/8/34 (H1N1) on virus particles (influenza A virus A/Puerto Rico/8/34 (H1N1)) (UniProt P06821)
# Assay: surface plasmon resonance on influenza virus; numbers stand in Table 4
binder,measurement,value
B1,binding,binds
